Data from PMC4100922.
These are yes or no findings as the source states them, for the method shown. For some of these results: In cells and extracts the contact can be indirect. Some binding calls cover weakened binding; strength is not graded here. Tags and fused reporters may be left off the sequences shown. Values belong to the molecule of their own block, whether it stands above or below them.

The chains behind the UniProt entries cited, without tags or fusion partners. Where a name states a change or a piece, a line headed by the entry shows the natural chain unless it says otherwise.
UniProt P04050: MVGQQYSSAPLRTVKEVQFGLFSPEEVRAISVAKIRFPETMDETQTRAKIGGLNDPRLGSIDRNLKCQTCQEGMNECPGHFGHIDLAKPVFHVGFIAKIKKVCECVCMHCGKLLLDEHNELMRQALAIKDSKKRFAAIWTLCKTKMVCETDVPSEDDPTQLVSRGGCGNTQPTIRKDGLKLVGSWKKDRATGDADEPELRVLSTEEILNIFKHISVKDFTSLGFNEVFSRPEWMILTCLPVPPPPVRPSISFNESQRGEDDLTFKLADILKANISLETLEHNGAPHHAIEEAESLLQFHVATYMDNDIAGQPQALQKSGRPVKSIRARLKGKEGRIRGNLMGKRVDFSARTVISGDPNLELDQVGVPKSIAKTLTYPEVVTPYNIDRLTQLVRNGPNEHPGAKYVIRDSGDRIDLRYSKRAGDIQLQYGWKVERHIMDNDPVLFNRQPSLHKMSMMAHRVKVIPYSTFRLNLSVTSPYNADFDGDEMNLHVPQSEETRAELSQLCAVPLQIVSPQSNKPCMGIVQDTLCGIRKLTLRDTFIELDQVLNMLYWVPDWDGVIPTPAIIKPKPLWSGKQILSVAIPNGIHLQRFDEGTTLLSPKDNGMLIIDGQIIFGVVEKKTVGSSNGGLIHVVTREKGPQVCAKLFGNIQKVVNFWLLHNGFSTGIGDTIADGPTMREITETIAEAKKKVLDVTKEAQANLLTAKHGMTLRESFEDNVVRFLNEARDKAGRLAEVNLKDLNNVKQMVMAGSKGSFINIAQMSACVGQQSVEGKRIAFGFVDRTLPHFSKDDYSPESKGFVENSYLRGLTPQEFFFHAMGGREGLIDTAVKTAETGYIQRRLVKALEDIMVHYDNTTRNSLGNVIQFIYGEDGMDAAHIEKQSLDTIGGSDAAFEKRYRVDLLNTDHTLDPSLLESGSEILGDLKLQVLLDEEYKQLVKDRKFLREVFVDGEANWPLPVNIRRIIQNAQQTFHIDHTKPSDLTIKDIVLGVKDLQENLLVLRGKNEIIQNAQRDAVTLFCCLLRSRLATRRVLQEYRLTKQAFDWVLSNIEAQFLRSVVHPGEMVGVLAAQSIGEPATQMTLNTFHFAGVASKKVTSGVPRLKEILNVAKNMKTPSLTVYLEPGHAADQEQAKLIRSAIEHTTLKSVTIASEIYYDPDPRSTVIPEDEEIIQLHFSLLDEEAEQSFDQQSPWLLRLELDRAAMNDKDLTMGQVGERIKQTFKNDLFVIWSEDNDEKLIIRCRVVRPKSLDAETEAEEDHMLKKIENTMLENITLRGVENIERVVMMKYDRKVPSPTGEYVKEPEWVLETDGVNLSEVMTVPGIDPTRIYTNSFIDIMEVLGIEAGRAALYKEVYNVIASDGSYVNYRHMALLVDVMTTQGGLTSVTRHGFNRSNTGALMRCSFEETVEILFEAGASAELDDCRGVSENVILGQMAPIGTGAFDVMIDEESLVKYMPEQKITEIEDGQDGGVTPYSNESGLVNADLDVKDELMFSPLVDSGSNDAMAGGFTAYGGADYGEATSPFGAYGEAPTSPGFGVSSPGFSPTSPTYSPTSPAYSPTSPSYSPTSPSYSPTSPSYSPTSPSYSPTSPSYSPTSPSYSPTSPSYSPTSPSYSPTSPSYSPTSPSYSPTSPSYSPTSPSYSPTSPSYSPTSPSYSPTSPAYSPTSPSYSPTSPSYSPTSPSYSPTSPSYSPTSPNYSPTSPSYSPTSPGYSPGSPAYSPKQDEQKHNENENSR

Columns and labels:
[1] = biological target: T1, Gal4 DNA-binding domain (GBD) fused to TFIIS (S. cerevisiae) (UniProt P07273); assay: two-hybrid; Y190 strain; GAD fused to the Rpb1 jaw domain, GBD fused to Bye1, its deletions or TFIIS; X-Gal agarose overlay for β-galactosidase activity
T1 sequence: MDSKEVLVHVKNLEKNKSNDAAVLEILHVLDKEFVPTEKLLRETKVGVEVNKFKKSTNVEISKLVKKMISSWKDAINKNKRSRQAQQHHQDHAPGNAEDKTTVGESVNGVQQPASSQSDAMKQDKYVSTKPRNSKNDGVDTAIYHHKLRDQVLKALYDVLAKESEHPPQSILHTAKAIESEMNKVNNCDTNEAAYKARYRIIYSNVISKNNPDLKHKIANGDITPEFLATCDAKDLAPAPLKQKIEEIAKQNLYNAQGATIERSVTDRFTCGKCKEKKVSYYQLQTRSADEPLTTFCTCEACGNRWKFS

[2] = biological target: T2, Gal4 DNA-binding domain (GBD) fused to Bye1 (whole protein) (S. cerevisiae) (UniProt P36106); assay: as above
T2 sequence: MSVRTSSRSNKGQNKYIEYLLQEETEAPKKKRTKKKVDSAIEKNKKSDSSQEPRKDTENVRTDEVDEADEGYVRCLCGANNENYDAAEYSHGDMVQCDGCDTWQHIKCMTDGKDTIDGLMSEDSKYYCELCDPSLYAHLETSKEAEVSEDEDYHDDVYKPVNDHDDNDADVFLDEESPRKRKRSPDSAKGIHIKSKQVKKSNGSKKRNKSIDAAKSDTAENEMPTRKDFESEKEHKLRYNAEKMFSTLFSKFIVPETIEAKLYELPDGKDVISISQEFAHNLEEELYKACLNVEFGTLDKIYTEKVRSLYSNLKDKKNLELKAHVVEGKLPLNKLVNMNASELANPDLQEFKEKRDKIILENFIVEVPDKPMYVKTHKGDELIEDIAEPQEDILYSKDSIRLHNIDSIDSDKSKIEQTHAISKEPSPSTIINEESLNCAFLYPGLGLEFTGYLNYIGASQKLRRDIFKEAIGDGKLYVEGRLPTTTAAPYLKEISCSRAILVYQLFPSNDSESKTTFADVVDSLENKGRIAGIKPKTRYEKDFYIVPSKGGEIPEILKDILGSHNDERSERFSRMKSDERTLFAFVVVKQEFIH

[3] = biological target: Rpb1 subunit of RNA polymerase II (S. cerevisiae (endogenous in yeast)) (UniProt P04050); assay: co-IP; from formaldehyde cross-linked, sonicated chromatin of the Bye1-Myc HA-TFIIS strain; IP as for ChIP on IgG magnetic beads with antibody against Rpb1 (8WG16), Western blot with anti-Myc and anti-HA; IP without antibodies as mock

binding [1]: binds | binding [2]: binds
Molecule: Gal4 activation domain (GAD) fused to the jaw domain (aa 1154–1252) of Rpb1 (from UniProt P04050 1154-1252) (domain or fragment)

binding [3]: binds
B1: Bye1-Myc (BYpass of Ess1 protein, Myc-tagged) (protein, UniProt P36106 1-594)
chain: T2 sequence

binding [3]: binds weakly
B2: HA-TFIIS (HA-tagged TFIIS transcription factor) (protein, UniProt P07273 1-309)
chain: T1 sequence
